Measurements from the supplement of paper PMC10689618.
Counter-ions that a name gives are not always drawn. The list shows a part of the results. Single values are uncertain, as repeats are few or missing.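 Primary human fetal astrocytes engulfed labelled rat cortical synaptosomes, measured as a red/green ratio corrected for calcein live-cell signal and scaled to the plate median. Toxicity meant calcein falling over 30%; decreased phagocytosis meant below 70% of median above 5 µM.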

Assays:
Conditions in all cases: 24 h
[1] = test system: Human fetal astrocytes; test: loss of total cells relative to no-compound high-control median (toxicity); higher = more toxic (fewer cells)
[2] = test system: Human fetal astrocytes; test: as above; remark: listed apart in the source
[3] = test system: Human fetal astrocytes; test: synaptosome phagocytosis (pHrodo/calcein intensity ratio) relative to plate median of data wells; higher = more phagocytosis
[4] = test system: Human fetal astrocytes; test: as above; remark: listed apart in the source

| Compound | loss of total cells ([1]; 1.39 µM) | loss of total cells ([1]; 2.78 µM) | loss of total cells ([1]; 5.56 µM) | loss of total cells ([1]; 11.11 µM) | loss of total cells ([1]; 22.22 µM) | loss of total cells ([2]; 1.39 µM) | loss of total cells ([2]; 2.78 µM) | loss of total cells ([2]; 5.56 µM) | loss of total cells ([2]; 11.11 µM) | loss of total cells ([2]; 22.22 µM) | synaptosome phagocytosis ([3]; 1.39 µM) | synaptosome phagocytosis ([3]; 2.78 µM) | synaptosome phagocytosis ([3]; 5.56 µM) | synaptosome phagocytosis ([3]; 11.11 µM) | synaptosome phagocytosis ([3]; 22.22 µM) | synaptosome phagocytosis ([4]; 1.39 µM) | synaptosome phagocytosis ([4]; 2.78 µM) | synaptosome phagocytosis ([4]; 5.56 µM) | synaptosome phagocytosis ([4]; 11.11 µM) | synaptosome phagocytosis ([4]; 22.22 µM) |
| --- | --- | --- | --- | --- | --- | --- | --- | --- | --- | --- | --- | --- | --- | --- | --- | --- | --- | --- | --- | --- |
| COc1cc2nc(N3CCN(C(=O)C4COc5ccccc5O4)CC3)nc(N)c2cc1OC (stereo not given) [Doxazosin mesylate] | 4.6% | 6% | 4.9% | -4% | 9.6% | -35.9% | 7.3% | -17.6% | -8.4% | -6.3% | 94% | 107% | 88.6% | 88.7% | 86.3% | 92.3% | 62.8% | 82.1% | 77.3% | 90.5% |
| CC[C@@H]1C(=O)OC[C@@H]1Cc1cncn1C [(+)-Pilocarpine hydrochloride] | -8.1% | -2.3% | -3.3% | 3.8% | 11.2% | -2.7% | -15.3% | -5.6% | -8.4% | 19.8% | 109% | 120% | 99.9% | 110% | 106% | 88.6% | 74.9% | 122% | 119% | 77.1% |
| Clc1ccc(C(c2ccccc2Cl)C(Cl)Cl)cc1 (stereo not given) [1-(2-Chlorophenyl)-1-(4-chlorophenyl)-2,2-dichloroethane] | 4% | -11.7% | -9.7% | -13% | 8.6% | -10% | 2.7% | 0.9% | 1.6% | 24.4% | 67% | 88.4% | 95.2% | 81.2% | 68.1% | 121% | 118% | 88.9% | 108% | 121% |
| Cc1ccccc1C(OCCN(C)C)c1ccccc1 (stereo not given) [Orphenadrine hydrochloride] | -15.6% | -10.4% | -0.5% | -2.9% | -6.5% | 14.9% | 3.4% | 18.9% | -7% | 7.9% | 107% | 86.6% | 96.2% | 111% | 93.9% | 102% | 96.6% | 97.8% | 101% | 89.8% |
| NC(=O)CC[C@H](N)C(=O)O [L-Glutamine] | -7.9% | -6.8% | -2.5% | 0.4% | 20.8% | -16.4% | 6.1% | 11.7% | 13.5% | -3% | 102% | 143% | 121% | 124% | 124% | 116% | 130% | 83.1% | 124% | 96.7% |
| c1ccc2c(c1)CCCC2C1=NCCN1 (stereo not given) [Tetrahydrozoline hydrochloride] | -15.8% | -31.4% | -2.2% | -5% | -14.8% | -20.5% | -9.8% | -4.2% | -4.3% | -3.3% | 72% | 76.6% | 73.7% | 110% | 94.1% | 83.6% | 120% | 89.4% | 116% | 110% |
| O=C(O)c1cc2cc(F)ccc2[nH]1 [5-Fluoroindole-2-carboxylic acid] | -4.4% | 18% | 9.7% | 13.9% | 11.7% | 5.4% | 0.4% | -1.4% | 16.3% | 20.5% | 112% | 95.7% | 117% | 139% | 137% | 87.8% | 128% | 89.7% | 92.4% | 104% |
| CNCCCC1c2ccccc2C=Cc2ccccc21 [Protriptyline hydrochloride] | 0.3% | -14.7% | -19.1% | 1.1% | -9.9% | -16.3% | 1.3% | 38.9% | 44.5% | 5.6% | 80.3% | 91.6% | 115% | 120% | 67.4% | 104% | 96.4% | 98.4% | 129% | 60.8% |
| CCCNC(C)C(=O)Nc1ccccc1C (stereo not given) [Prilocaine hydrochloride] | -7.1% | -6.9% | 9.6% | 1.1% | -12.3% | 33.1% | -31.7% | 23.6% | -0.3% | 24.6% | 127% | 92.4% | 107% | 79.7% | 110% | 110% | 116% | 114% | 130% | 148% |
| COc1ccccc1OCC(O)CN1CCN(CC(=O)Nc2c(C)cccc2C)CC1 (stereo not given) [Ranolazine dihydrochloride] | -7.8% | -26.6% | -9% | 3.4% | 11.5% | -11.6% | -0.9% | 7.5% | -14.1% | -22.1% | 81.4% | 102% | 109% | 62.4% | 71.7% | 94.9% | 118% | 98.1% | 96% | 62.5% |
| O=C1CC2(CCCC2)CC(=O)N1CCCCN1CCN(c2ncccn2)CC1 [Buspirone hydrochloride] | -7.3% | -5.1% | -32.7% | 3.1% | -7.1% | -24.3% | 21.3% | -29% | 4.5% | -4.8% | 76.4% | 114% | 102% | 106% | 90.1% | 129% | 107% | 71.7% | 92.6% | 112% |
| Oc1ccc(O)cc1 [Hydroquinone] | -2.1% | -8.5% | 4.9% | -3.1% | -1.6% | -3.3% | 10.7% | 16.5% | -10.9% | 25.5% | 113% | 104% | 91.5% | 74.7% | 86.8% | 105% | 93.9% | 120% | 95.5% | 96% |
| CC(=O)Oc1cc(C(C)C)c(OCCN(C)C)cc1C [Moxisylyte hydrochloride] | -24.2% | -5.9% | 3.3% | 7.6% | 20.6% | -4.7% | -7.6% | 10.9% | -8.8% | 28.8% | 73.8% | 142% | 112% | 72.5% | 144% | 86.2% | 115% | 121% | 117% | 95.7% |
| CCN(Cc1ccncc1)C(=O)C(CO)c1ccccc1 (stereo not given) [Tropicamide] | -25.2% | -25.4% | -10.7% | -14.9% | -4.1% | 10.4% | -21.4% | -7.7% | 4.3% | 0.3% | 71.8% | 104% | 82% | 112% | 106% | 108% | 98.9% | 136% | 154% | 106% |
| O=C(O)CCc1nc(-c2ccccc2)c(-c2ccccc2)o1 [Oxaprozin] | -28.9% | 13.1% | 8% | 11.4% | 4.7% | -25.8% | -13.5% | -1.2% | 47.5% | -4% | 122% | 106% | 96.7% | 121% | 88.2% | 95.1% | 118% | 109% | 100% | 89.3% |
| COc1ccccc1N1CCN(CCCNc2cc(=O)n(C)c(=O)n2C)CC1 [Urapidil hydrochloride] | -18.9% | -11.1% | -3.9% | 4.2% | -29.6% | 20.6% | 30% | 17.4% | 5.4% | 21.2% | 127% | 91% | 103% | 103% | 112% | 104% | 87.9% | 105% | 92.9% | 65.9% |
| N=C(N)NCCCCNC(=N)N [Arcaine sulfate] | 4.4% | -16.8% | 0.5% | -25.6% | -10.2% | -24.6% | 4.7% | -4.4% | 7.4% | 4.4% | 93.5% | 48% | 110% | 142% | 62.1% | 99.5% | 121% | 102% | 93.8% | 135% |
| CC(C)Cc1ccc(C(C)C(=O)O)cc1 (racemic) [(±)-Ibuprofen] | -12.8% | 5.9% | -3.3% | -5.7% | 0% | -2.1% | -34.2% | -16% | 2.6% | -21.6% | 90.8% | 121% | 114% | 61.3% | 58.3% | 106% | 117% | 101% | 139% | 116% |
| Nc1c2c(nc3ccccc13)CCCC2O (stereo not given) [Hydroxytacrine maleate] | -9.6% | -5.1% | 3.3% | -29.1% | 12% | 10.5% | 15.5% | 9.4% | -2.1% | 18.9% | 99.8% | 100% | 99% | 105% | 105% | 116% | 111% | 115% | 121% | 134% |
| O=C(CCc1ccc(O)cc1)c1c(O)cc(O)cc1O [Phloretin] | -19.6% | -19.5% | 7.3% | -1.1% | -14.8% | -25.4% | 10.5% | -19% | 8.1% | 11.1% | 94.5% | 95.9% | 99% | 110% | 99.2% | 118% | 109% | 112% | 90.6% | 83.3% |
| O=C(O)c1ccccc1Nc1ccccc1 [N-Phenylanthranilic acid] | 0.4% | -2.7% | -5.1% | -1.3% | 1.9% | -33.6% | -11.9% | -11% | 10.8% | -25.9% | 120% | 114% | 90.5% | 94.2% | 79.8% | 112% | 116% | 103% | 101% | 121% |
| NCCS [Cysteamine hydrochloride] | -9% | 5.9% | 12.7% | -21% | -2.8% | 24.2% | -48.4% | 31.7% | -12.1% | 18.4% | 124% | 86.8% | 130% | 61.6% | 104% | 112% | 84.8% | 116% | 124% | 116% |

Individual results from the entries so far:
Value for `CNCCCC1c2ccccc2C=Cc2ccccc21` [Protriptyline hydrochloride] under synaptosome phagocytosis ([3]; 2.78 µM): 91.6%
Value for `COc1ccccc1N1CCN(CCCNc2cc(=O)n(C)c(=O)n2C)CC1` [Urapidil hydrochloride] under loss of total cells ([2]; 22.22 µM): 21.2%
